Source: publication PMC11801372
Results are given in words; binding and its absence hold for the method and conditions named. In cells and extracts the contact can be indirect. Some entries that bind do so weakly or less than the wild type. Where a sequence is shown, tags or fusion partners need not be part of it.

Amino acid sequences for entries named in this document (tags omitted).
UniProt Q9DBD5: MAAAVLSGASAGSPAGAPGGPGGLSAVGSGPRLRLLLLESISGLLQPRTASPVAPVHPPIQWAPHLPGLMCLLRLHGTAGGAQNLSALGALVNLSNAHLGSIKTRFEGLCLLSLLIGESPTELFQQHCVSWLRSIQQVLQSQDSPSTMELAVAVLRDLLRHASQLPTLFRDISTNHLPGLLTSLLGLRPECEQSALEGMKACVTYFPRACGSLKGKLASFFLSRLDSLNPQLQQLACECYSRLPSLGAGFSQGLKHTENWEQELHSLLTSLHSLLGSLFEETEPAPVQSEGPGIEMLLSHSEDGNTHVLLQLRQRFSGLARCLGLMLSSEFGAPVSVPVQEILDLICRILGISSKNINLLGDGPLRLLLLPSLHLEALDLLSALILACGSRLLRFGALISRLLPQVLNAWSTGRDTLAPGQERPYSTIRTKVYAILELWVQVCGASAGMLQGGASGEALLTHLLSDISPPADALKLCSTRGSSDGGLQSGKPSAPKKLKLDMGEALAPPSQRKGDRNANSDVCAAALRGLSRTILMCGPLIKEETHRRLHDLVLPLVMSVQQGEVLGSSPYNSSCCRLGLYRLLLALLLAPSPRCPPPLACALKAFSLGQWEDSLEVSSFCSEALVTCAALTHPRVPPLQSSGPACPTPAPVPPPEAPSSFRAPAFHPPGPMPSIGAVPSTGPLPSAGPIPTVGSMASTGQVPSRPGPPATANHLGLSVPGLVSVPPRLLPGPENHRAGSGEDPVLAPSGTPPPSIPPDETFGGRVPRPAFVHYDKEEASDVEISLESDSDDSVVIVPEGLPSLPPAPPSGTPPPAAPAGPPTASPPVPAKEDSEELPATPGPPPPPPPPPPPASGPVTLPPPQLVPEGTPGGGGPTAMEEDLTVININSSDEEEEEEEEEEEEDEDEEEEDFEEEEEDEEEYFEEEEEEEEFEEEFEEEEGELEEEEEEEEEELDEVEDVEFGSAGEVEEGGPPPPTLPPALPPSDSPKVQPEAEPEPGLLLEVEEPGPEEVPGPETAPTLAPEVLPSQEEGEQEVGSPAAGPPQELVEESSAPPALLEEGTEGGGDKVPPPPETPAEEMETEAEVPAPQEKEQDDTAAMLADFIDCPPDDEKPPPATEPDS

Tests used:
FLAG-NANOG = molecular target: T1, FLAG-NANOG (UniProt Q80Z64); test: co-IP; anti-Flag M2 agarose beads on lysate of ESCs cultured 3 days in 2iL; TNE buffer (50 mM tris-HCl, 1 mM EDTA, 300 mM NaCl, 0.5% NP-40), sonicated, benzonase added, 2 hours at 4°C; immunoblot for SPIC-GFP
T1 sequence: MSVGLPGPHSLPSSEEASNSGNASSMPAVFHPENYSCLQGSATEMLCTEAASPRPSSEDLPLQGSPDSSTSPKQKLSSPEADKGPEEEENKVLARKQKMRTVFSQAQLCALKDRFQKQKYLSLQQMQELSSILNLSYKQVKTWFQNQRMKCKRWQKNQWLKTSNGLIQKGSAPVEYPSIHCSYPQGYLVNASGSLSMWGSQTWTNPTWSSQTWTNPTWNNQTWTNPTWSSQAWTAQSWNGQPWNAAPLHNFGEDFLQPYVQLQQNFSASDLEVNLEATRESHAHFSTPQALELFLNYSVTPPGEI

FLAG-PELP1 (mouse) = FLAG-PELP1 (mouse) (UniProt Q9DBD5); test: as above

B1: SPIC-green fluorescent protein (GFP) fusion protein (protein, UniProt Q6P3D7 1-242)
chain: MTCCIDQDSLGQTFQDAIDILIQQSAGESQYSSENRNYMAIINPYPHVRGNANYYGMSPTENPLYDWRGVTNGSADLYLEGGFHQSVQNIAESQLVQPPFFQQKGGRGRRKLRLFEYLFESLCNSEMVSCIQWVDKARGIFQFISKNKETLAELWGQRKGNRKPMTYQKMARALRNYARTGEIIKIRRKLTYQFSEAVLQRLAPANYLGKDLFYPQYGQPDQGYLSLNHWNANHYAHGSYQS
binding (FLAG-NANOG): binds | binding (FLAG-PELP1 (mouse)): binds
